Results are given in words; binding and its absence hold for the method and conditions named. In cells and extracts the contact can be indirect. Some results given as binding are weak or reduced against the parent protein; the word gives no strength.
Columns and labels:
[1] = molecular target: HA-tagged human TIM-3 (expressed in 293T cells) (human) (UniProt Q8TDQ0); experiment: co-immunoprecipitation, anti-HA blot (FIG. 1C)
[2] = molecular target: HA-tagged human TIM-3 (expressed in 293T cells) (human) (UniProt Q8TDQ0); experiment: co-immunoprecipitation with anti-Flag agarose beads from co-transfected 293T cells, anti-HA blot
[3] = molecular target: Flag-tagged human Gal3 (over-expressed in 293T cells) (human) (UniProt P17931); experiment: pull-down with Fc fusion protein, anti-Flag blot (FIG. 2)
[4] = molecular target: Flag-tagged human Gal3 (over-expressed in 293T cells) (human) (UniProt P17931); experiment: pull-down: 293T cells expressing Flag-hGal3 on plates coated with hTIM-3 Fc, Protein G beads, anti-Flag blot

By UniProt entry, the sequences of proteins in these tests, tags left out. Where a name states a change or a piece, a line headed by the entry shows the natural chain unless it says otherwise. Chains listed by the source or under a name are the forms on record and can include a tag or linker. Residues count along the entry.
UniProt Q8TDQ0: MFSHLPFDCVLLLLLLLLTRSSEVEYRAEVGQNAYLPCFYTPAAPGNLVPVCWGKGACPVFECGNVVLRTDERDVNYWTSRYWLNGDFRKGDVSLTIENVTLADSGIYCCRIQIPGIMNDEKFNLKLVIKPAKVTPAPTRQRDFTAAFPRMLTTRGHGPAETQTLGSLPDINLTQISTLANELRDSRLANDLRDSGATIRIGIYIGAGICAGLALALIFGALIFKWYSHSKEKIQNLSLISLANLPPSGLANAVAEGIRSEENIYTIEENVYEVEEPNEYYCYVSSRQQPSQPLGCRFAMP
HA-tagged human TIM-3 (expressed in 293T cells): residues 22-301 of Q8TDQ0
UniProt P17931: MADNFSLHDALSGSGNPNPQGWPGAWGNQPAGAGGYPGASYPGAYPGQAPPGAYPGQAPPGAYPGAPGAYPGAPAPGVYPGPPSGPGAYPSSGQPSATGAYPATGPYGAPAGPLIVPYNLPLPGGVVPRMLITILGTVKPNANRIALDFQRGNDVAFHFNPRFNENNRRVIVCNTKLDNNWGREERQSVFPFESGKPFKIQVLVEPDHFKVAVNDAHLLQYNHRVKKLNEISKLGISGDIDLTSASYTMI

binding [1]	binding [2]	binding [3]	binding [4]	Substance
binds	binds			Flag-tagged human Gal3 (over-expressed in 293T cells) (from UniProt P17931 1-250) (ligand)
		binds	binds	hTIM-3 Fc (hTIM-3 extracellular domain fused with the Fc portion of hIgG) (from UniProt Q8TDQ0 22-202) (Fc fusion)

Source: patent US20200223921A1
